From US11478478B2, “2,3-disubstituted 1-acyl-4-amino-1,2,3,4-tetrahydroquinoline derivatives and their use as bromodomain inhibitors” (GLAXOSMITHKLINE INTELLECTUAL PROPERTY (NO.2) LIMITED, priority 2013, dated 2022)
Some of these results come from one statement about several compounds together. For at least one compound, name, drawing or mass did not settle the structure.

Target: T1, BRD4 BD2 (Homo sapiens, UniProt O60885, Y97A)
T1 construct: BRD4 (1-477) (Y97A) and (Y390A); made in house; host or cells: E. coli (pET15b vector)
Assay: TR-FRET binding assay, BRD4 BD2 (BD1-mutated protein)
Conditions: BRD4 BD2 over BRD4 BD1; ≥1 log unit = at least 10 fold, ≥2 log unit = at least 100 fold selective
Description: Time Resolved Fluorescence Resonance Energy Transfer (TR-FRET) Assay Binding was assessed using a time resolved fluorescent resonance energy transfer binding assay. This utilises a 6 His purification tag at the N-terminal of the proteins as an epitope for an anti-6 His antibody labeled with Europium chelate (PerkinElmer AD0111) allowing binding of the Europium to the proteins which acts as the donor fluorophore. A small molecule, high affinity binder of the bromodomains BRD2, BRD3, BRD4 and BRDT has been labeled with Alexa Fluor647 (Reference Compound X) and this acts as the acceptor in the FRET pair.
In the absence of a competing compound, excitation of the Europium causes the donor to emit at λ618 nm which excites the Alexa labelled bromodomain binding compound leading to an increased energy transfer that is measurable at λ647 nM. In the presence of a sufficient concentration of a compound that can bind these proteins, the interaction is disrupted leading to a quantifiable drop in fluorescent resonance energy transfer.
The binding of the compounds of formula (I) to Bromodomains BRD2, BRD3, BRD4 and BRDT was assessed using mutated proteins to detect differential binding to either Binding Domain 1 (BD1) or Binding Domain 2 (BD2) on the bromodomain. These single residue mutations in the acetyl lysine binding pocket greatly lower the affinity of the fluoroligand (Reference Compound X) for the mutated domain (>1000 fold selective for the non-mutated domain). Therefore in the final assay conditions, binding of the fluoroligand to the mutated domain cannot be detected and subsequently the assay is suitable to determine the binding of compounds to the single non-mutated bromodomain.
Recombinant Human Bromodomains [(BRD2 (1-473) (Y113A) and (Y386A), BRD3 (1-435) (Y73A) and (Y348A) BRD4 (1-477) (Y97A) and (Y390A) and BRDT (1-397) (Y66A) and (Y309A)] were expressed in E. coli cells (in pET15b vector for BRD2/3/4 and in pET28a vector for BRDT) with a 6-His tag at the N-terminal. The His-tagged Bromodomain pellet was resuspended in 50 mM HEPES (pH7.5), 300 mM NaCl, 10 mM imidazole & 1 μl/ml protease inhibitor cocktail and extracted from the E. coli cells using sonication and purified using a nickel sepharose high performance column, the proteins were washed and then eluted with a linear gradient of 0-500 mM imidazole with buffer 50 mM HEPES (pH7.5), 150 mM NaCl, 500 mM imidazole, over 20 column volumes. Final purification was completed by Superdex 200 prep grade size exclusion column. Purified protein was stored at −80° C. in 20 mM HEPES pH 7.5 and 100 mM NaCl. Protein identity was confirmed by peptide mass fingerprinting and predicted molecular weight confirmed by mass spectrometry.
All assay components were dissolved in buffer composition of 50 mM HEPES pH7.4, 50 mM NaCl, 5% Glycerol, 1 mM DTT and 1 mM CHAPS. The final concentration of bromodomain proteins were 10 nM and the Alexa Fluor647 ligand was at Kd. These components were premixed and 5 μl of this reaction mixture was added to all wells containing 50 nl of various concentrations of test compound or DMSO vehicle (0.5% DMSO final) in Greiner 384 well black low volume microtitre plates and incubated in dark for 30 minutes at rt. 5 μl of detection mixture containing 1.5 nM final concentration anti-6His Europium chelate was added to all wells and a further dark incubation of at least 30 minutes was performed. Plates were then read on the Envision platereader, (λex=317 nm, donor λem=615 nm; acceptor λem=665 nm; Dichroic LANCE dual). Time resolved fluorescent intensity measurements were made at both emission wavelengths and the ratio of acceptor/donor was calculated and used for data analysis. All data was normalized to the mean of 16 high (inhibitor control—Example 11 of WO 2011/054846A1) and 16 low (DMSO) control wells on each plate. A four parameter curve fit of the following form was then applied: y=a+((b−a)/(1+(10^/10^)^d) […]

SMILES	Selectivity = BRD4 BD2 pIC50 − BRD4 BD1 pIC50 [log unit]
CC(=O)N1c2ccc(C#N)cc2[C@H](Nc2ncccc2C)[C@@H](C)[C@@H]1C1CC1 [Example 296, (2S,3R,4R)-1-Acetyl-2-cyclopropyl-3-methyl-4-((3-methylpyridin-2-yl)amino)-1,2,3,4-tetrahydroquinoline-6-carbonitrile]	≥ 2
CC(=O)N1c2ccc(C#N)cc2[C@H](Nc2cccc(CN3CCOCC3)n2)[C@@H](C)[C@@H]1C1CC1 [Example 297, (2S,3R,4R)-1-acetyl-2-cyclopropyl-3-methyl-4-((6-(morpholinomethyl)pyridin-2-yl)amino)-1,2,3,4-tetrahydroquinoline-6-carbonitrile]	≥ 2
CC(=O)N1c2ccc(C#N)cc2[C@H](Nc2cccc(CO)n2)[C@@H](C)[C@@H]1C1CC1 [Example 312, (2S,3R,4R)-1-acetyl-2-cyclopropyl-4-((6-(hydroxymethyl)pyridin-2-yl)amino)-3-methyl-1,2,3,4-tetrahydroquinoline-6-carbonitrile]	≥ 2
CC(=O)N1c2ccc(C#N)cc2[C@H](Nc2cccc(CN3CCNCC3)n2)[C@@H](C)[C@@H]1C1CC1 [Example 315, (2S,3R,4R)-1-acetyl-2-cyclopropyl-3-methyl-4-((6-(piperazin-1-ylmethyl)pyridin-2-yl)amino)-1,2,3,4-tetrahydroquinoline-6-carbonitrile]	≥ 2
CC(=O)N1c2ccc(C#N)cc2[C@H](Nc2ccc(Cl)c(CO)n2)[C@@H](C)[C@@H]1C1CC1 [Example 326, (2S,3R,4R)-1-acetyl-4-((5-chloro-6-(hydroxymethyl)pyridin-2-yl)amino)-2-cyclopropyl-3-methyl-1,2,3,4-tetrahydroquinoline-6-carbonitrile]	≥ 2
CC(=O)N1c2ccc(C(N)=O)cc2[C@H](Nc2cccc(CO)c2)[C@@H](C)[C@@H]1C1CC1 [Example 337, (2S,3R,4R)-1-acetyl-2-cyclopropyl-4-((3-(hydroxymethyl)phenyl)amino)-3-methyl-1,2,3,4-tetrahydroquinoline-6-carboxamide]	≥ 2
CC(=O)N1c2ccc(C(N)=O)cc2[C@H](Nc2cccc(OCCN)c2)[C@@H](C)[C@@H]1C1CC1 [Example 339, (2S,3R,4R)-1-acetyl-4-((3-(2-aminoethoxy)phenyl)amino)-2-cyclopropyl-3-methyl-1,2,3,4-tetrahydroquinoline-6-carboxamide]	≥ 2
CC(=O)N1c2ccc(C(N)=O)cc2[C@H](Nc2cccc(OCCO)c2)[C@@H](C)[C@@H]1C1CC1 [Example 340, (2S,3R,4R)-1-acetyl-2-cyclopropyl-4-((3-(2-hydroxyethoxy)phenyl)amino)-3-methyl-1,2,3,4-tetrahydroquinoline-6-carboxamide]	≥ 2
COc1cc(N[C@H]2c3cc(C(N)=O)ccc3N(C(C)=O)[C@@H](C3CC3)[C@@H]2C)ccc1Cl [Example 363, (2S,3R,4R)-1-acetyl-4-((4-chloro-3-methoxyphenyl)amino)-2-cyclopropyl-3-methyl-1,2,3,4-tetrahydroquinoline-6-carboxamide]	≥ 2
COc1ccccc1N[C@H]1c2cc(C(N)=O)ccc2N(C(C)=O)[C@@H](C2CC2)[C@@H]1C [Example 364, (2S,3R,4R)-1-acetyl-2-cyclopropyl-4-((2-methoxyphenyl)amino)-3-methyl-1,2,3,4-tetrahydroquinoline-6-carboxamide]	≥ 2
CC(=O)N1c2ccc(C(N)=O)cc2[C@H](Nc2cccc([C@H](C)O)n2)[C@@H](C)[C@@H]1C1CC1 [Example 368a, (2S,3R,4R)-1-acetyl-2-cyclopropyl-4-((6-(S-1-hydroxyethyl)pyridin-2-yl)amino)-3-methyl-1,2,3,4-tetrahydroquinoline-6-carboxamide]	≥ 2
